# No constants are given. Whether binding was seen depends on the method and setting.
# B1: WT construct NMAD-1A_(21-263) (domain or fragment, UniProt Q8MNT9 21-263)
# chain: TTERVKKLRVVEDKHVNYKVFIYDHIRQIAIPTTNLNSQSSLEDIIDESTSCQSVSTDGSIEIDGLTLIHNFLSESEESKILNMIDTVEWAQSQSGRRKQDYGPKVNFKHKKVKTDTFVGMPEYADMLLNKMSEYDVKKLGNYQPFEMCNLEYEEVKKSAIEMHQDDMWIWGNRLISINLINGSVMTLSNDNKSFLCYVHMPHRSLLCMADECRYDWKHGVLAHHIRGRRIALTMREAAKDFA
# B2: mut3 (E109K/Q112K/Q114K) NMAD-1A_(1-291) (enzyme, UniProt Q8MNT9 1-291)
# chain: MGSAEQACGCKGARFCALCETTERVKKLRVVEDKHVNYKVFIYDHIRQIAIPTTNLNSQSSLEDIIDESTSCQSVSTDGSIEIDGLTLIHNFLSESEESKILNMIDTVKWAKSKSGRRKQDYGPKVNFKHKKVKTDTFVGMPEYADMLLNKMSEYDVKKLGNYQPFEMCNLEYEEVKKSAIEMHQDDMWIWGNRLISINLINGSVMTLSNDNKSFLCYVHMPHRSLLCMADECRYDWKHGVLAHHIRGRRIALTMREAAKDFAEGGELYEKYGAELIRLGNIRVPLSKTSV
# B3: mut3 (E109K/Q112K/Q114K) NMAD-1A_(21-291) (domain or fragment, UniProt Q8MNT9 21-291)
# chain: TTERVKKLRVVEDKHVNYKVFIYDHIRQIAIPTTNLNSQSSLEDIIDESTSCQSVSTDGSIEIDGLTLIHNFLSESEESKILNMIDTVKWAKSKSGRRKQDYGPKVNFKHKKVKTDTFVGMPEYADMLLNKMSEYDVKKLGNYQPFEMCNLEYEEVKKSAIEMHQDDMWIWGNRLISINLINGSVMTLSNDNKSFLCYVHMPHRSLLCMADECRYDWKHGVLAHHIRGRRIALTMREAAKDFAEGGELYEKYGAELIRLGNIRVPLSKTSV
# How the values were obtained:
# Experiment in all cases: SAXS; oligomeric state in solution; proteins purified by gel filtration in 25 mM HEPES pH 7.5, 100 mM NaCl, 5 mM β-mercaptoethanol; 1 to 4 mg/mL; 10 °C; both purified
# [1] = biological target: WT construct NMAD-1A_(21-263) (C. elegans) (UniProt Q8MNT9)
# [2] = biological target: mut3 (E109K/Q112K/Q114K) NMAD-1A_(1-291) (C. elegans) (UniProt Q8MNT9)
# [3] = biological target: mut3 (E109K/Q112K/Q114K) NMAD-1A_(21-291) (C. elegans) (UniProt Q8MNT9)
binder,measurement,setting,value
B1,binding,[1],no binding (tested: 1 to 4 mg/mL)
B2,binding,[2],no binding (tested: 1 to 4 mg/mL)
B3,binding,[3],no binding (tested: 1 to 4 mg/mL)
